# Results as given in PubChem BioAssay AID2417 (National Center for Advancing Translational Sciences (NCATS), 2010).
# In all, about 140,000 compounds went through this assay and about 4,300 (3.1%) were called active. The shares of active, inactive and inconclusive entries below differ from those in the screen.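 Rule for the calls: active = readout at or below -70, meaning at least 70% loss of cells showing the perinucleolar compartment, a nuclear body marking cancer cells; inconclusive = readout between -30 and a set limit; inactive = the rest.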
# Assay: High Content Assay for Compounds that inhibit the Assembly of the Perinucleolar Compartment;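 note: plate controls were DMSO wells for no effect and camptothecin positive control wells for full effect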
# Conditions: PC3M PTB-GFP, PNC prevalence imaging, 16 h; at 10 µM; hits give low values
# Outline: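 Compounds are pinned in duplicate onto adhered PC3M cells stably expressing GFP-tagged PTB and incubated 16 h at 37 C. Cells are then fixed, nuclei stained with Hoechst, and PNC-positive cells counted.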
row,Compound,"activity change (PNC), negative = inhibition"
1,Cc1c(NC(=S)N/N=C/c2ccc(N(C)C)cc2)c(=O)n(-c2ccccc2)n1C,inactive: 14.1%
2,CCC(C)NC(=O)c1cc(Sc2nnc(C)s2)nc2ccccc12 (stereo not drawn),inactive: -11.1%
3,COc1ccc(CCNC(=O)c2cc(-c3ccc(C)cc3O)n[nH]2)cc1OC,inactive: -15.7%
4,O=C(c1ccco1)N(CCC(c1ccccc1)c1ccco1)Cc1ccccc1 (stereo not drawn),inactive: -20.4%
5,COc1ccc(CN2CCN(C(=O)CC(C)C)CC2)cc1OC,inactive: -29.9%
6,CCOc1cccc(/C(O)=C2/C(=O)C(=O)N(CCN3CCOCC3)C2c2cccnc2)c1 (stereo not drawn),inconclusive: -56.1%
7,CCS(=O)(=O)NCCCc1ccccc1,inconclusive: -32.5%
8,CCOCCCNC(=O)C(C)NS(=O)(=O)c1ccc(C)cc1 (stereo not drawn),active: -89.7%
9,CCOC(=O)C1CCCN(C(=O)c2ccc(OC(C)=O)cc2)C1 (stereo not drawn),inconclusive: -50.9%
10,CCSc1nnc(NC(=O)c2cccc(OCc3c(C)noc3C)c2)s1,active: -111%
11,Cc1ccc(-n2c(Cc3cccn3C)nnc2SCC(=O)Nc2nnc(C)s2)cc1,inactive: 4.56%
12,CCC(C)[C@H](NC(=O)NC(C)C)C(=O)O (stereo partly drawn),inconclusive: -60.1%
13,O=C(Nc1ccccc1)c1ccc(NCCc2ccccc2)c([N+](=O)[O-])c1,inconclusive: -37.9%
14,COCCN1C=C(C(=O)OC)C(c2ccc3c(c2)OCO3)C(C(=O)OC)=C1,inconclusive: -55.9%
15,COc1ccc(CC(=O)NC(C)c2nnc(SCC(=O)Nc3nc(C)cs3)n2C)cc1 (stereo not drawn),inconclusive: -37.6%
16,CCC(C)NC(=O)C1CCC(=O)N(c2cc(OC)c(OC)c(OC)c2)C1c1ccc(OC)cc1 (stereo not drawn),active: -100%
17,Cc1cc(Nc2nc3ccccc3nc2Cl)n(-c2ccccc2)n1,inconclusive: -35.9%
18,CCOC(=O)C1CCN(S(=O)(=O)c2ccc(-n3cnnn3)c(C)c2)CC1,active: -100%
19,CCOC(=O)c1[nH]c2ccc(OC)cc2c1NC(=O)CCN1CCC(C)CC1,inconclusive: -77.7%
20,CNCc1ccc(OCc2ccccc2)c(OC)c1,inactive: -10.3%
21,N#CCSc1nnc(Cc2cccc3ccccc23)n1C1CCCCC1,inconclusive: -30.7%
22,COc1cc(CNc2ccc(CNc3ncn[nH]3)cc2)cc(Cl)c1OCc1ccccc1,inconclusive: -40.3%
23,CC1CC(=O)N(Cc2ccccc2)c2ccccc2N1C=O (stereo not drawn),inactive: -6.55%
24,CCCCCNC(=O)N[C@H](C(=O)O)C(C)C,inconclusive: -36.2%

row,Compound,"activity change (PNC), negative = inhibition"
1,Cc1ccc2c(c1)C(c1ccc(F)cc1)N(C(=O)c1cc3ccccc3oc1=O)CC(=O)N2 (stereo not drawn),active: -88.9%
2,CCN(CC)CCNC(=O)C(=O)NCC1OCCN1C(=O)c1ccc2c(c1)OCO2 (stereo not drawn),inactive: 15.9%
3,COc1cc(NS(=O)(=O)c2ccc(C)c(C)c2)c(OC)cc1Cl,inconclusive: -31.4%
4,CC1(C)C(=O)OC(C(=O)c2ccccc2)C2(CCCCC2)C1=O (stereo not drawn),inconclusive: -34.6%
5,CC(C)Oc1ccc(C(=O)NC2CCS(=O)(=O)C2)cc1 (stereo not drawn),inconclusive: -41.8%
6,N#Cc1ccc(C(c2nnnn2C2CCCC2)N2CCC(Cc3ccccc3)CC2)cc1 (stereo not drawn),inactive: 52.2%
7,COc1ccc(C(=O)C2CCN(C(=O)c3ccco3)CC2)cc1,inactive: 24.5%
8,CN(c1cc(=O)n2ccccc2n1)C1CCCCC1,inconclusive: -54.1%
9,COc1ccc2cc3c(N)nn(C(=O)Cc4ccc(Cl)cc4)c3nc2c1,inactive: 12.7%
10,CNC(=O)NC(=O)C(C)OC(=O)c1cc2c(s1)CCCCC2 (stereo not drawn),inconclusive: -64%
11,COc1ccc(NC2=NCC(=O)N2c2ccccc2F)c(OC)c1,inactive: -28.4%
12,CCCOCC1CC2(SC(=Nc3ccc(C)cc3)NC2=O)C(=O)O1 (stereo not drawn),inconclusive: -48.8%
13,CC(C)CNC(=O)c1ccccc1NC(=O)Nc1ccccc1,inconclusive: -39.5%
14,Cc1ccc(C)n1-c1sc2c(c1C#N)CCCC2,active: -100%
15,CCN(CC)S(=O)(=O)c1ccc(NC2c3ccccc3C(=O)N2CCN2CCOCC2)cc1 (stereo not drawn),inactive: -12.4%
16,CN1CCN(CC(C)(C)NS(=O)(=O)c2ccc(Cl)cc2)CC1,inconclusive: -30.6%
17,Cc1cc(C)c(S(=O)(=O)N2C=CC(C(F)(F)F)=NCC2)c(C)c1,inconclusive: -40.7%
18,N#CC1(c2ccccc2)CCCN1C(=O)c1ccc(Br)o1 (stereo not drawn),inactive: 45.6%
19,Oc1ccc(C2=Nn3c(nnc3-c3ccco3)SC2)cc1O,inconclusive: -61%
20,Cc1nc2ccc(NC(=O)C(F)(F)F)cc2o1,inconclusive: -46.8%
21,Cc1cc(NS(=O)(=O)Cc2ccccc2)no1,inconclusive: -78.7%
22,COc1ccc(/C=C2\CCCC3C2=NN(C(=O)CSc2ncn[nH]2)C3c2ccc(OC)cc2)cc1 (stereo not drawn),inconclusive: -55.7%
23,COc1ccc(CN2C(=O)C(O)(CC(=O)c3c(C)n[nH]c3C)c3ccccc32)cc1OC (stereo not drawn),inconclusive: -31.4%
24,COc1ccc(C(=O)c2ccc(N(C)C)cc2)c2ccccc12,active: -96.6%

row,Compound,"activity change (PNC), negative = inhibition"
1,CCN(CC)c1ccc2cc(S(=O)(=O)c3ccc(C)cc3)c(=O)oc2c1,inactive: -9.34%
2,O=C(NCCCN1CCCC1)c1ccc(CSCc2cccc(Cl)c2)o1,inconclusive: -71.6%
3,COc1ccc(C(=O)Nc2ncc3c(n2)CC(c2ccco2)CC3=O)cc1 (stereo not drawn),inconclusive: -48.3%
4,CCOC(=O)N1CCN(C(=O)CSc2nnc(-c3cccc(Cl)c3)o2)CC1,inconclusive: -52.1%
5,COc1ccc(S(=O)(=O)N2CCCC(C(=O)N3CCCCCC3)C2)cc1 (stereo not drawn),inconclusive: -56.7%
6,Cc1scc(C(=O)NNC(=S)NCC2CCCO2)c1C (stereo not drawn),inconclusive: -42.2%
7,CCC(C)Cn1c(C(C)O)nc2ccccc21 (stereo not drawn),inconclusive: -74.2%
8,COc1cnc(-c2ccccn2)nc1Oc1ccccc1Cl,inconclusive: -59%
9,Cc1onc(-c2c(Cl)cccc2Cl)c1C(N)=O,inconclusive: -51.4%
10,COc1ccccc1CNC(=O)CCNC(=O)Cn1ccc2ccccc2c1=O,inconclusive: -75.6%
11,O=C(O)C1OC2OC3(CCCCC3)OC2C2OC3(CCCCC3)OC12 (stereo not drawn),inconclusive: -51.8%
12,CCOc1ncccc1C(=O)Nc1ccc2c(C)cc(=O)oc2c1,inconclusive: -77%
13,O=C(c1cccc(Cl)c1)N1CCN(Cc2ccncc2)CC1,inconclusive: -42.6%
14,CCCCOc1ncnc2c1[nH]c1ccc(OCC)cc12,inactive: 9.28%
15,COc1ccc(/C=N/NC(=S)NC2CCS(=O)(=O)C2)cc1OC (stereo not drawn),active: -100%
16,c1ccc(CSc2nnc(SCc3ccccn3)s2)nc1,inactive: -20.1%
17,COc1cc(OC)cc(-n2nnnc2SCC(=O)NC2CCCC2)c1,inactive: 37.1%
18,Cc1cc(C)cc(NC(=S)Nc2ccccn2)c1,inconclusive: -32.8%
19,O=C(N/N=C\c1ccc(Sc2ccccn2)o1)c1cccc(F)c1,inconclusive: -33.1%
20,CCc1ccccc1NC(=S)/N=C(\N)Nc1nc(C)c2cc(C)ccc2n1,inconclusive: -30.3%
21,C=CCn1c(C)c(C(C)=O)c(N2CCN(c3ccccc3)CC2)nc1=S,inactive: 27.1%
22,O=C(Nc1cccc2ccccc12)C12CC3CC(C1)CC(n1cnc([N+](=O)[O-])n1)(C3)C2,inactive: -27.5%
23,COCCn1nnnc1CN(CCCN1CCOCC1)Cc1cc2c(C)ccc(C)c2[nH]c1=O,inconclusive: -58.6%
24,Cc1ccc(NC(=O)CN2C(=O)CSC2=O)cc1,inconclusive: -44%

# Pulled one by one from the list above (two):
row,Compound,"activity change (PNC), negative = inhibition"
8,CN(c1cc(=O)n2ccccc2n1)C1CCCCC1,inconclusive: -54.1%
21,C=CCn1c(C)c(C(C)=O)c(N2CCN(c3ccccc3)CC2)nc1=S,inactive: 27.1%

# 4 entries already listed, arranged by length of the SMILES, ascending:
row,Compound,"activity change (PNC), negative = inhibition"
9,Cc1onc(-c2c(Cl)cccc2Cl)c1C(N)=O,inconclusive: -51.4%
14,CCCCOc1ncnc2c1[nH]c1ccc(OCC)cc12,inactive: 9.28%
12,CCOc1ncccc1C(=O)Nc1ccc2c(C)cc(=O)oc2c1,inconclusive: -77%
21,C=CCn1c(C)c(C(C)=O)c(N2CCN(c3ccccc3)CC2)nc1=S,inactive: 27.1%

# Next entries:

row,Compound,"activity change (PNC), negative = inhibition"
1,Cc1sc(NC(=O)c2ccco2)c(CN2CCN(c3ccccc3)CC2)c1C,inconclusive: -64.1%
2,CCC(C)c1ccccc1NC(=O)COC(=O)c1ccc2[nH]c3c(c2c1)CCCC3 (stereo not drawn),inconclusive: -31.3%
3,CC(=O)N/C(=N\OCc1ccccc1Cl)c1nonc1NC(C)=O,inactive: 61.4%
4,CC(C)CC(=O)N1CCN(S(=O)(=O)c2ccc(F)cc2)CC1,active: -119%
5,c1cncc(CNC2CCCc3ccccc32)c1 (stereo not drawn),active: -82.7%
6,COC(=O)c1c(-c2cccnc2)csc1NC(=O)c1cc(C)on1,inconclusive: -30.3%
7,Nc1c(S(=O)(=O)c2ccccc2)c2nc3ccccc3nc2n1Cc1ccco1,inactive: 34.4%
8,CCC(CO)NCc1cc(OC)c(OCC(=O)NCCc2ccccc2)cc1Br (stereo not drawn),inactive: 55.9%
9,CCCCC(=O)Nc1sc2c(c1C(N)=O)CCC2,inactive: 28%
10,Cc1cc(C)n2nc(Nc3ccccc3)cc2n1,inconclusive: -40.6%
11,CCOC(=O)c1ccc(N2C(=O)C3CC=C(C)CC3C2=O)cc1 (stereo not drawn),inactive: -19.1%
12,Cc1cc(C)c(C#N)c(SCC(=O)c2cccs2)n1,inconclusive: -64.6%
13,CCN(CC)C1=N/C(=C\c2ccc(OC)cc2)C(=O)N1c1ccccc1,inactive: -22%
14,CCN1C(=O)N/C(=C/c2cc(C)n(Cc3ccccc3)c2C)C1=O,inconclusive: -34.5%
15,O=C(COc1ccc(Cl)cc1)Nc1ccc(Cl)cn1,inactive: -24.5%
16,O=C(c1ccc2ccccc2n1)N1CCN(c2ccccc2)CC1,inactive: 41.6%
17,O=c1c2ccccc2n2c(-c3cccc(F)c3)nnc2n1Cc1ccccc1,inconclusive: -54.5%
18,O=C(NCc1nnc(SCc2ccc(F)cc2)n1-c1ccc(F)cc1)C12CC3CC(CC(C3)C1)C2,inactive: -18.2%
19,CCOc1ccc(S(=O)(=O)Nc2nc3ccc(OC)cc3s2)cc1,inactive: 1.79%
20,COc1ccc(/C=N/NC(=O)CCSc2nc3ccccc3s2)cc1,inconclusive: -35.5%
21,Nc1c(C(=O)NCc2ccco2)nnn1-c1ccccc1,inconclusive: -48.8%
